Reference: patent EP2695891B1, “OCTAPEPTIDE, RADIOPHARMACEUTICAL AGENT BASED THEREON AND METHOD FOR DIAGNOSING TUMORS” (Aktsionernoe Obschestvo "Pharm-Sintez", priority 2011, dated 2018)
At least one peptide structure holds a part that was inferred or is arguable (an end, a ring closure or a residue).

Test system: murine melanoma B16 culture
Assay: accumulation of ^68Ga-marked compounds in tumour cells in vitro (direct radiometry)
Assay type: cell-based
Details: incubation 10, 30 and 60 minutes at 37°C

## C[C@@H](O)[C@H](NC(=O)[C@@H]1CSSC[C@H](NC(=O)[C@H](CCCCN)NC(=O)CN2CCN(CC(=O)O)CCN(CC(=O)O)CCN(CC(=O)O)CC2)C(=O)N[C@@H](Cc2ccc(O)cc2)C(=O)N[C@H](Cc2c[nH]c3ccccc23)C(=O)N[C@@H](CCCCN)C(=O)N[C@@H]([C@@H](C)O)C(=O)N1)C(=O)O [Compound 1a]
  accumulation level in melanoma B16 cells compared with DE: higher than in experiments with DE
